Experimental data reported in PMC9785488, “EBF1 Negatively Regulates Brassinosteroid-Induced Apical Hook Development and Cell Elongation through Promoting BZR1 Degradation” (International Journal of Molecular Sciences, 2022).
No constants are given. Whether binding was seen depends on the method and setting. For some assays here: Binding seen in cells or lysates may run through a third protein. Some binding calls cover weakened binding; strength is not graded here. For some assays here: Sequences can lack the tags named with a protein. Each block holds one molecule with its values, some of them ahead of it.

Amino acid sequences for entries named in this document (tags omitted).
UniProt Q9LN63: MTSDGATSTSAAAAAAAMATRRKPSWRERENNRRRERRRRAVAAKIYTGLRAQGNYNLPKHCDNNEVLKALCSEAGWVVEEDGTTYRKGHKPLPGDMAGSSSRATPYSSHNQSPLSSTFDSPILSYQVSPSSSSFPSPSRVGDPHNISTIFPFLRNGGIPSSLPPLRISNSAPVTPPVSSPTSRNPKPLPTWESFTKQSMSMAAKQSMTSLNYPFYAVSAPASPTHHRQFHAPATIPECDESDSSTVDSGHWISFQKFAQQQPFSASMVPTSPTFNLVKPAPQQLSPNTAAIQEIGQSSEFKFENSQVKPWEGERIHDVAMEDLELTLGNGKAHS

Tests used:
[1] = target: T1, EIN3 BINDING F-BOX PROTEIN1 (EBF1), two-hybrid bait in pBD-GAL4 (Arabidopsis thaliana) (UniProt Q9SKK0); experiment: two-hybrid; preys in pAD-GAL4, baits in pBD-GAL4, yeast strain AH109; growth on SD (-Trp-Leu-His) with 1.5 mM 3-AT
T1 sequence: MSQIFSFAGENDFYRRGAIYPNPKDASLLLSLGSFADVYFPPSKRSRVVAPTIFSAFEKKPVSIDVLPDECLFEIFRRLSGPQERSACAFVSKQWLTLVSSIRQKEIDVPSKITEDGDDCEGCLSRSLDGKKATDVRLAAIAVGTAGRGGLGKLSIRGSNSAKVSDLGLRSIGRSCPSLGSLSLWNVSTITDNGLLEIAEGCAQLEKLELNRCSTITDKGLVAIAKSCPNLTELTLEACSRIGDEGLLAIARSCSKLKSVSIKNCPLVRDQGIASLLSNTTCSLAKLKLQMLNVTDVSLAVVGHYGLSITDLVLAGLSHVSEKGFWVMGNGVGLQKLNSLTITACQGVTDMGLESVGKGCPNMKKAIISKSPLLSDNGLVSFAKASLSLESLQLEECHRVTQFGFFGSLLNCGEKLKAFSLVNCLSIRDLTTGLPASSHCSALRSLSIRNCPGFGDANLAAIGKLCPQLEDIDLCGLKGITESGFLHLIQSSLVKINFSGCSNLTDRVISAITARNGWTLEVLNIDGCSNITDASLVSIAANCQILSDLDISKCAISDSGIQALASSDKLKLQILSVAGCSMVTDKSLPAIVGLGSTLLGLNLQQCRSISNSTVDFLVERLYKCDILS

[2] = target: T2, EBF2, two-hybrid bait in pBD-GAL4 (Arabidopsis thaliana) (UniProt Q708Y0); experiment: as above
T2 sequence: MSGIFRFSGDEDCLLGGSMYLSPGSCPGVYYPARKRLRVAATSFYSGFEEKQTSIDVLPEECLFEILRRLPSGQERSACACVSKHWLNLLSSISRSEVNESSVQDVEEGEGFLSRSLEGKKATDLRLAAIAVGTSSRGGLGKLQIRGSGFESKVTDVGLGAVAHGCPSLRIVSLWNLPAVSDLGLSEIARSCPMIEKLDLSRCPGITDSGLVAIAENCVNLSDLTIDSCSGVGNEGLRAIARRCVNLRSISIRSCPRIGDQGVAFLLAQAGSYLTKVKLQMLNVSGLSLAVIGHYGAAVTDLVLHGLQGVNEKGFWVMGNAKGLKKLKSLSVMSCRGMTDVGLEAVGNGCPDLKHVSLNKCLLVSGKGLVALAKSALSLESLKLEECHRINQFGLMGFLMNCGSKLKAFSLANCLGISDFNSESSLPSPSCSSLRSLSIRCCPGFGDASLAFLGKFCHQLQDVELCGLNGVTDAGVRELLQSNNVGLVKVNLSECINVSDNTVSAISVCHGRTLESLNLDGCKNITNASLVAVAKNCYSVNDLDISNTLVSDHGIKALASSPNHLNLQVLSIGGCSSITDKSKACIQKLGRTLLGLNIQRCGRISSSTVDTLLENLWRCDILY

[3] = target: BZR1-cYFP (Arabidopsis thaliana) (UniProt Q8S307); experiment: split reporter; BiFC of cYFP and nYFP fusions in Arabidopsis mesophyll protoplasts, 10 h at 22 °C, confocal microscopy
[4] = target: BZR1-GFP (pro35S:BZR1-GFP) (Arabidopsis thaliana) (UniProt Q8S307); experiment: co-IP; Arabidopsis Col-0 protoplasts co-expressing EBF1-MYC and BZR1-GFP; lysate on GFP-Trap magnetic beads; 20 mM HEPES-KOH pH 7.5, 40 mM KCl, 1 mM EDTA, 0.5% Triton X-100; blots with anti-MYC and anti-YFP

binding [1]: binds
Molecule: BRASSINAZOLE-…1 (BZR1), two-hybrid prey in pAD-GAL4 (from UniProt Q8S307 1-336)

binding [2]: binds | binding [1]: binds
Molecule: BRI1-EMS-SUPPRESSOR1 (BES1), two-hybrid prey in pAD-GAL4 (from UniProt Q9LN63 1-335)

binding [3]: binds
B1: EBF1-nYFP (protein, UniProt Q9SKK0 1-628)
chain: T1 sequence

binding [4]: binds
B2: EBF1-MYC (pro35S:EBF1-MYC) (protein, UniProt Q9SKK0 1-628)
chain: T1 sequence
